Changes are numbered by the printed parent chain. These are yes or no findings as the source states them, for the method shown. In cells and extracts the contact can be indirect. Some results given as binding are weak or reduced against the parent protein; the word gives no strength. Sequences can lack the tags named with a protein.

Here are results for one molecule from paper doi:10.1101/2022.01.04.474980.

Experiment in all cases: co-IP
The target of experiment [1] is T1, FRQ^RR/HH (RR783HH), VHF-tagged (N. crassa) (UniProt P19970).
T1 sequence: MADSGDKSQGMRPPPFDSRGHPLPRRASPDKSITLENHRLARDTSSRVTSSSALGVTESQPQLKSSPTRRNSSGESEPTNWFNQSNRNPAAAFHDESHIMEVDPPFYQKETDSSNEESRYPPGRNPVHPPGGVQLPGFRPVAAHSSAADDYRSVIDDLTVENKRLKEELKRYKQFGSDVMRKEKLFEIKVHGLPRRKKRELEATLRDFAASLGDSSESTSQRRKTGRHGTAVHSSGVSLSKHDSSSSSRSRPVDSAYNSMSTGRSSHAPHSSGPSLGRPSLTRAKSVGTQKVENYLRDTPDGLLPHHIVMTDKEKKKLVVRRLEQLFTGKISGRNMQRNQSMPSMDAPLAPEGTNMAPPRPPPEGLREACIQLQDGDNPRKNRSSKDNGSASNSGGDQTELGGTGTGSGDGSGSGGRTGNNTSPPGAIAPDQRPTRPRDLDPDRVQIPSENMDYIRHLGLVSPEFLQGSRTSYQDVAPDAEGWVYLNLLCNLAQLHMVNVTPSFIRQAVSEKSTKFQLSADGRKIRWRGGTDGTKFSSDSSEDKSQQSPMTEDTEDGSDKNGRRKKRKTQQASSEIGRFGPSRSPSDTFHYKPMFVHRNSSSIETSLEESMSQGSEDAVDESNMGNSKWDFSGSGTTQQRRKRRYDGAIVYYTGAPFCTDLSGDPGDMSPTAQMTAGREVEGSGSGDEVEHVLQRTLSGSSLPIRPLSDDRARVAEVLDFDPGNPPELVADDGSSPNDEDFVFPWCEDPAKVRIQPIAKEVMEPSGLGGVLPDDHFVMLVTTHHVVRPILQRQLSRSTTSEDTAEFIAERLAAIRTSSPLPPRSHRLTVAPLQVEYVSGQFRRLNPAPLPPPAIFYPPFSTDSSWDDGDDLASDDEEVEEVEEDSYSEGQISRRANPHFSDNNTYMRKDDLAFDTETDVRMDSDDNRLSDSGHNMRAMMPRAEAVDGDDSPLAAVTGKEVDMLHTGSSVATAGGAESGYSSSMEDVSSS

Experiment [2] concerns the target T2, FRQ^VHF (VHF-tagged wild-type FREQUENCY) (N. crassa) (UniProt P19970).
T2 sequence: T1 sequence with H783R, H784R

Experiment [3] has as its target T3, FRQ^RR/AA (RR783AA), VHF-tagged (N. crassa) (UniProt P19970).
T3 sequence: T1 sequence with H783A, H784A

B1: FRQ-interacting RNA Helicase (FRH), endogenous in N. crassa (protein, UniProt Q1K502 1-1106)
chain: MDDLFEVFEEQPRAQKKRKASPDVEMADGAAAAAPVANAAAAVTHPQAQAAPAPQKDNIDNNDNNNNNTTTSAVQPTIPNGDAAAAADDVQSPQSPHGLGDNKRRKKTDEAEPIMTDAFQTAESREVTGAQGFAPTEGESIVLSHNIQHQVALPPDLDYEYIPLSEHKPPAEPARTYSFKLDPFQALSVASIEREESVLVSAHTSAGKTVVAEYAIAQCLKKNQRVIYTSPIKALSNQKYRDFQAEFGDVGLMTGDVTINPTASCLVMTTEILRSMLYRGSEIMREVAWVVFDEIHYMRDKIRGVVWEETIILLPDKVRYVFLSATIPNAFQFAEWIAKIHRQACHVVYTDFRPTPLQNYFFPAGGKGILLIVDEKGNFKENNFNQAMAMIEEKKGTDSNDWSAKQKGKGKNKKTNKGGEAADEKADIAKIIKMILKKNFQPVIVFNFSKRECEQMALASSSMKFNAPDEENMVNKVFENALASLSEDDKNLPQISNILPLLRKGIGVHHSGLLPILKETIEILFQEGLIKVLFATETFSIGLNMPARTVVFTQVTKWDGQQRRPLTSSEYIQMAGRAGRRGLDDRGIVIMMVDDKLEPETARAIVVGNQDKLNSAFHLGYNMVLNLLRIEAISPEYMLERCFFQFQNAASVPQLERELISLQQERDAIIIPDESIVKDYYGVRQQLEEYNKDMVFVIQHPQNCLGFFQEGRLIHIKSPSGVDYGWGVLIKHIQRQTPKNGQPPYPEQESYVLDVLLKVSGDFNPKTRGEGPMPEGIMPAGKDSKNARWEVVPCLLNCLRALGQLRVFLPKRLESADEKDGVGKAVDEISRRFPDGIPILDPMENMGINDDSFKKLLRKIEVLESRLVANPLHNSPLLVELWNQYSLKMQLGEQIKEKKKAIARAHSVAQLDELKSRKRVLRRLGFINDAEVVQMKARVACEISSTEGHELLLAELLFNRFFNELSPEICACILSCFIFDEKIETQALKEELAKPFREIQAQARIIAKVSAESKLDVNEDEYVQSLKWQLMETVLAWAQGRPFSEICKMTNVYEGSLIRLFRRLEELLRQMAEAARVMGSEELKDKFELSLSKIRRDIVSFNSLYL
Turning to B1, the binding entry is on record as “binds” in experiment [1], “binds” in experiment [2] and “no binding” in experiment [3].
